Data source: PubChem BioAssay AID686937 (Drosophila RNAi Screening Center, 2013)
Assay: 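Genes in the fly needed for secretion of protein constitutively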 (primary screen). Cell system: Drosophila S2 cells expressing secreted horseradish peroxidase. Reagent: long dsRNA against Drosophila genes. Timing: about 5.5 days (5 days dsRNA, then 12 h reporter induction). Treatment: reporter expression induced after 5 days of dsRNA, read 12 h later; inducer not stated. Read-out: 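After 5 days of dsRNA and 12 h of reporter induction, medium peroxidase read by chemiluminescence and scored as per-plate z-score; higher values mean more reporter released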. Reading the numbers: z-score: higher = more reporter secreted into medium.
The deposit covers about 23,000 reagents; below is an unselected part of those that have a named target and a result. 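Reduced-secretion tags in replicate 1 do not always agree with the z-scores; no criterion for assigning the tags was given.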 Reagents against one gene are numbered here. Names joined by + are all predicted targets of the reagent. Not stated in the record: the amount of reagent.

no.	Target gene	reagent no.	z-score, replicate 1	z-score, replicate 2	phenotype, replicate 1
1	Dap160	1	0.08	0.46	
2	Dap160	2	0.42	0.38	
3	iav	1	0.1	0.08	
4	PVRAP	1	0.28	0.47	
5	PVRAP	2	0.43	0.13	
6	CG12129	1	0.22	0.35	
7	sima	1	-0.36	-0.4	
8	Spn42Da	1	0.31	0.16	
9	Bicra	1	0.46	0.44	
10	Prosbeta7	1	-4.93	-4.57	reduced secretion
11	rtet	1	0.29	0.32	
12	CG6066	1	0.39	0.44	
13	CG6066	2	1.34	2.17	
14	phr6-4	1	1.13	0.65	
15	CG33177	1	0.27	0.43	
16	CG10089	1	0.12	0.32	
17	CG10089	2	0.21	0.36	
18	CG34115	1	-0.31	-0.22	
19	CG10898	1	0.4	0.52	
20	omd	1	0.93	0.86	
21	tup	1	0.1	0.25	
22	CG43089	1	0.24	-0.25	
23	eIF3a	1	-3.36	-1.7	reduced secretion
24	CG42814	1	0.18	0.23	
25	Pura	1	0.57	0.58	
26	Pura	2	0.13	0.27	
27	Pura	3	0.33	0.29	
28	Pura	4	0.07	0.29	
29	Pura	5	0.21	0.21	
30	CG33998	1	-0.16	-0.04	
31	Drsl4	1	0.06	0.01	

The list goes on, starting with the last 5 of the part before.
no.	Target gene	reagent no.	z-score, replicate 1	z-score, replicate 2	phenotype, replicate 1
27	Pura	3	0.33	0.29	
28	Pura	4	0.07	0.29	
29	Pura	5	0.21	0.21	
30	CG33998	1	-0.16	-0.04	
31	Drsl4	1	0.06	0.01	
32	alphaTub84B	1	-2.84	-1.67	reduced secretion
33	mTTF	1	-0.04	-0.01	
34	Amph	1	0.07	0.25	
35	eEF5	1	-0.32	-0.3	
36	HDAC6	1	0.26	0.66	
37	CG10431	1	0.18	0.32	
38	CG7164	1	0.66	0.48	
39	MME1	1	0.43	0.34	
40	asun	1	0.37	0.34	
41	CG2157	1	0.29	0.5	
42	Bap60	1	-1.54	-0.75	reduced secretion
43	RpL27	1	-2.67	-4.66	reduced secretion
44	Cyp6a21	1	0.41	0.4	
45	Jheh1	1	0.47	0.35	
46	nonA-l	1	0.01	0.19	
47	CG13305	1	-0.71	-1.49	
48	Gal	1	0.2	0.15	
49	Pxd	1	0.27	0.51	
50	CARPA	1	-0.03	0.26	
51	CARPA	2	0.15	-0.21	
52	CG12831	1	0.2	0.31	
53	trx	1	0.41	0.26	
54	mRpS25	1	-0.06	-0.23	
55	wls	1	0.52	0.61	
56	CG5906	1	-0.11	0.06	
57	CG15643	1	0.46	0.17	
58	Dhc64C	1	0.23	0.21	
59	CPT2	1	-0.26	0.21	
60	Arc42	1	0.46	0.5	
61	Arc42	2	0.17	-0.14	
62	Jhbp7	1	0.23	0.19	
63	lili	1	0.11	0.27	
64	Osi12	1	0.42	0.65	
65	CG9004	1	0.14	0.27	
66	Gbs-70E	1	0.4	0.22	
67	mub	1	0.23	0.44	
68	CG15395	1	0.1	0.09	
69	jv	1	0.39	0.17	
70	jv	2	0.47	0.3	
71	Pabp2	1	-3.95	-4.09	reduced secretion
72	CG12680	1	0.1	0.37	
73	dare	1	0.28	0.26	
74	TfIIB	1	-2.77	-4.97	reduced secretion
75	Idgf3	1	0.48	0.29	
76	Gr98d	1	0.12	0.42	
77	CG2812	1	0.23	0.23	
78	CG6689	1	0.39	0.4	
79	CG9743	1	0.17	-0.06	
80	HIP + HIP-R	1	0.28	0.19	
81	Tsp	1	0.26	0.27	
82	Tsp	2	0.05	-0.01	
